Experimental data taken from article PMC5832848.
Results are given in words; binding and its absence hold for the method and conditions named. In cells and extracts the contact can be indirect. Some results given as binding are weak or reduced against the parent protein; the word gives no strength. Sequences can lack the tags named with a protein.

Protein sequences, listed by entry. Tags and fused reporters are not part of them.
UniProt P06733: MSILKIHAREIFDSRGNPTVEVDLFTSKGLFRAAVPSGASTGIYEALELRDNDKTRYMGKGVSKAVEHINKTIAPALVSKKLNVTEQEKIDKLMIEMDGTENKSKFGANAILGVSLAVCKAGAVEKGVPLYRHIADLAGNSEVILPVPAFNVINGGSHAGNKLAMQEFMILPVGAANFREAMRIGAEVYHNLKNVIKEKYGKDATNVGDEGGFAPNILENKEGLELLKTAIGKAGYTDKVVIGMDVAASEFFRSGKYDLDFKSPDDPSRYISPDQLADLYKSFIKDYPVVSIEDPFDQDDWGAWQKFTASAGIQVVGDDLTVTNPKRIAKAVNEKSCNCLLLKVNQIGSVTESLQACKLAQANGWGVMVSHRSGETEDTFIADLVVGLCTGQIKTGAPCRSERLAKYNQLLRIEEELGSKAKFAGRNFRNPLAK

T1: recombinant human GST-WBP2 protein (WW domain-binding protein 2) (human) (UniProt Q969T9)
T1 sequence: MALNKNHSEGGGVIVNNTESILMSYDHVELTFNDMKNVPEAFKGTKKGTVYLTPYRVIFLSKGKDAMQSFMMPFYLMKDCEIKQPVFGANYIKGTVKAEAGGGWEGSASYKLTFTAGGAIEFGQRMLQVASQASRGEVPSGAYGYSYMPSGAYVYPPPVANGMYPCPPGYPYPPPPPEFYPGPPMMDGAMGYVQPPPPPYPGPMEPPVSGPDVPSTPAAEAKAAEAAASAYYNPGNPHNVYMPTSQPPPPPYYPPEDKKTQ

B1: exogenous Homer3 (Homer protein homolog 3) transfected in U251 cells (protein, UniProt Q9NSC5 1-361)
chain: MSTAREQPIFSTRAHVFQIDPATKRNWIPAGKHALTVSYFYDATRNVYRIISIGGAKAIINSTVTPNMTFTKTSQKFGQWADSRANTVYGLGFASEQHLTQFAEKFQEVKEAARLAREKSQDGGELTSPALGLASHQVPPSPLVSANGPGEEKLFRSQSADAPGPTERERLKKMLSEGSVGEVQWEAEFFALQDSNNKLAGALREANAAAAQWRQQLEAQRAEAERLRQRVAELEAQAASEVTPTGEKEGLGQGQSLEQLEALVQTKDQEIQTLKSQTGGPREALEAAEREETQQKVQDLETRNAELEHQLRAMERSLEEARAERERARAEVGRAAQLLDVSLFELSELREGLARLAEAAP

Molecular target: T1, recombinant human GST-WBP2 protein (WW domain-binding protein 2) (human)
Assay: pull-down; purified L-glutathione-sepharose-immobilized GST-WBP2 incubated with lysates of U251 cells overexpressing ENO1 or Homer3; SDS-PAGE and blot with specific primary antibody; only the target purified

Molecule | binding
exogenous ENO1 (α-enolase) transfected in U251 cells (from UniProt P06733 1-434) (enzyme) | binds
B1 | binds
